The list does not hold the whole screen: its compounds were picked by chemical class. Not every dose and run of a compound is shown. T/C: endpoint of the treated group in % of that of the vehicle group. Schedules are NCI's codes, read here as Q, the interval in days (D) or hours (H), X, the number of doses. Some entries show no survivor count and are marked so; the dose need not have been tolerated. Some entries hold several experiments; their values stand side by side, smallest first. For survival time, this PubChem deposit counts one and a half times the control or more as active, and values a quarter to a half above the control carry no call in these data; other NCI protocols may use other cut-offs.
Test system: BDF1 mice, colon carcinoma 38 sc, T/C %
Test: NCI In Vivo Anticancer Drug Screen. Data for tumor model Colon Carcinoma 38 (subcutaneous) in B6D2F1 (BDF1) mice
Protocol: The antitumor activity of compounds was measured in mice bearing transplantable tumors. Survival or tumor size were measured and the results are expressed as the measurement made in the treated group (T) divided by the measurement made in the vehicle treated control group (C). The tumor model used in this assay is Colon Carcinoma 38 (subcutaneous) in B6D2F1 (BDF1) mice

[1] = T/C endpoint: median survival time, dose: 1.5 mg/kg/injection, schedule: Q07DX003 (sc), vehicle: saline + alcohol, higher T/C = longer survival
[2] = T/C endpoint: median tumor weight (est.), dose: 0.25 mg/kg/injection, schedule: Q07DX003 (ip), vehicle: saline, evaluated on day 20, higher T/C = larger tumour
[3] = T/C endpoint: median tumor weight (est.), dose: 0.5 mg/kg/injection, schedule: Q07DX003 (ip), vehicle: saline, evaluated on day 20, higher T/C = larger tumour
[4] = T/C endpoint: median tumor weight (est.), dose: 1.0 mg/kg/injection, schedule: Q07DX002 (ip), vehicle: saline, evaluated on day 20, higher T/C = larger tumour
[5] = T/C endpoint: median tumor weight (est.), dose: 1.0 mg/kg/injection, schedule: Q07DX003 (ip), vehicle: saline, evaluated on day 20, higher T/C = larger tumour
[6] = T/C endpoint: median tumor weight (est.), dose: 2.0 mg/kg/injection, schedule: Q07DX003 (ip), vehicle: saline with Tween-80, evaluated on day 20, higher T/C = larger tumour
[7] = T/C endpoint: median tumor weight (est.), dose: 2.0 mg/kg/injection, schedule: Q07DX003 (ip), vehicle: saline, evaluated on day 20, higher T/C = larger tumour
[8] = T/C endpoint: median tumor weight (est.), dose: 4.0 mg/kg/injection, schedule: Q07DX003 (ip), vehicle: saline with Tween-80, evaluated on day 20, higher T/C = larger tumour
[9] = T/C endpoint: median tumor weight (est.), dose: 4.0 mg/kg/injection, schedule: Q07DX003 (ip), vehicle: saline, evaluated on day 20, higher T/C = larger tumour
[10] = T/C endpoint: median tumor weight (est.), dose: 5.0 mg/kg/injection, schedule: Q07DX002 (ip), vehicle: saline, evaluated on day 20, higher T/C = larger tumour
[11] = T/C endpoint: median tumor weight (est.), dose: 8.0 mg/kg/injection, schedule: Q07DX002 (ip), vehicle: saline, evaluated on day 20, higher T/C = larger tumour
[12] = T/C endpoint: median tumor weight (est.), dose: 8.0 mg/kg/injection, schedule: Q07DX003 (ip), vehicle: saline, evaluated on day 20, higher T/C = larger tumour
[13] = T/C endpoint: median tumor weight (est.), dose: 10.0 mg/kg/injection, schedule: Q07DX002 (ip), vehicle: saline, evaluated on day 20, higher T/C = larger tumour

Compound: C=C(C)C(=O)OCC12CCC(C)=CC1OC1C(=O)C(OC(=O)C(=C)C)C2(C)C12CO2 (stereo not drawn)
- T/C (T/C endpoint: median tumor weight (est.), dose: 0.5 mg/kg/injection, schedule: Q07DX002 (ip), vehicle: distilled water + Tween-80, evaluated on day 20, higher T/C = larger tumour): 53 % of control [survivor count not shown]
- T/C (T/C endpoint: median tumor weight (est.), dose: 1.0 mg/kg/injection, schedule: Q07DX002 (ip), vehicle: distilled water + Tween-80, evaluated on day 20, higher T/C = larger tumour): 23 % of control [survivor count not shown]
- T/C (T/C endpoint: median tumor weight (est.), dose: 2.0 mg/kg/injection, schedule: Q07DX002 (ip), vehicle: distilled water + Tween-80, evaluated on day 20, higher T/C = larger tumour): 33 % of control [survivor count not shown]
- T/C (T/C endpoint: median tumor weight (est.), dose: 4.0 mg/kg/injection, schedule: Q07DX002 (ip), vehicle: distilled water + Tween-80, evaluated on day 20, higher T/C = larger tumour): 65 % of control [survivor count not shown]

Compound: CC(=O)OCC12CCC(C)=CC1OC1C(O)C(OC(C)=O)C2(C)C12CO2 (stereo not drawn)
- T/C [1]: 111 % of control [survivor count not shown]
- T/C (T/C endpoint: median survival time, dose: 2.4 mg/kg/injection, schedule: Q01DX010 (ip), vehicle: saline + alcohol, higher T/C = longer survival): 144 [survivor count not shown] and 154 % of control [survivor count not shown]
- T/C (T/C endpoint: median survival time, dose: 3.0 mg/kg/injection, schedule: Q07DX003 (sc), vehicle: saline + alcohol, higher T/C = longer survival): 132 % of control [survivor count not shown]
- T/C (T/C endpoint: median tumor weight (est.), dose: 0.25 mg/kg/injection, schedule: Q07DX002 (ip), vehicle: saline, evaluated on day 20, higher T/C = larger tumour): 82 % of control [survivor count not shown]
- T/C [2]: 86 % of control [survivor count not shown]
- T/C [3]: 63 [survivor count not shown], 70 [survivor count not shown], 96 % of control [survivor count not shown]
- T/C [4]: 126 % of control [survivor count not shown]
- T/C [5]: 65 [survivor count not shown], 66 [survivor count not shown], 68 [survivor count not shown], 77 [survivor count not shown], 106 % of control [survivor count not shown]
- T/C [6]: 34 % of control [survivor count not shown]
- T/C [7]: 23 [survivor count not shown], 32 [survivor count not shown], 43 [survivor count not shown], 62 [survivor count not shown], 102 % of control [survivor count not shown]
- T/C [8]: 11 % of control [survivor count not shown]
- T/C [9]: 20 [survivor count not shown], 24 [survivor count not shown], 29 [survivor count not shown], 65 % of control [survivor count not shown]
- T/C [10]: 68 % of control [survivor count not shown]
- T/C [11]: 27 % of control [survivor count not shown]
- T/C (T/C endpoint: median tumor weight (est.), dose: 8.0 mg/kg/injection, schedule: Q07DX003 (ip), vehicle: saline with Tween-80, evaluated on day 20, higher T/C = larger tumour): 7 % of control [survivor count not shown]
- T/C [12]: 3 [survivor count not shown], 19 [survivor count not shown], 61 % of control [survivor count not shown]
- T/C [13]: 52 % of control [survivor count not shown]
- T/C (T/C endpoint: median tumor weight (est.), dose: 20.0 mg/kg/injection, schedule: Q07DX002 (ip), vehicle: saline, evaluated on day 20, higher T/C = larger tumour): 17 % of control [survivor count not shown]

Compound: CC1=C[C@H]2O[C@@H]3[C@H](OC(=O)CCl)[C@@H](O)[C@](C)(C2(CO)CC1)[C@@]31CO1 (stereo partly drawn)
- T/C (T/C endpoint: median tumor weight (est.), dose: 12.0 mg/kg/injection, schedule: Q07DX003 (ip), vehicle: saline with Tween-80, evaluated on day 20, higher T/C = larger tumour): 54 % of control [survivor count not shown]
- T/C (T/C endpoint: median tumor weight (est.), dose: 24.0 mg/kg/injection, schedule: Q07DX003 (ip), vehicle: saline with Tween-80, evaluated on day 20, higher T/C = larger tumour): 55 % of control [survivor count not shown]

Compound: CC1=C[C@H]2O[C@@H]3[C@H](O)[C@@H](OC(=O)CCl)[C@](C)([C@@]2(CO)CC1)[C@]31CO1
- T/C (T/C endpoint: median tumor weight (est.), dose: 5.0 mg/kg/injection, schedule: Q07DX003 (ip), vehicle: saline with Tween-80, evaluated on day 20, higher T/C = larger tumour): 171 % of control [survivor count not shown]
- T/C (T/C endpoint: median tumor weight (est.), dose: 10.0 mg/kg/injection, schedule: Q07DX003 (ip), vehicle: saline with Tween-80, evaluated on day 20, higher T/C = larger tumour): 75 % of control [survivor count not shown]
- T/C (T/C endpoint: median tumor weight (est.), dose: 20.0 mg/kg/injection, schedule: Q07DX003 (ip), vehicle: saline with Tween-80, evaluated on day 20, higher T/C = larger tumour): 54 % of control [survivor count not shown]

Compound: CC(=O)OCC12CCC(C)=CC1OC1C(O)C(O)C2(C)C12CO2 (stereo not drawn)
- T/C [5]: 56 % of control [survivor count not shown]
- T/C [7]: 55 % of control [survivor count not shown]

Compound: CC(=O)OC[C@]12C[C@H](OC(=O)CC(C)C)C(C)=C[C@H]1OC1[C@H](O)[C@@H](OC(C)=O)[C@@]2(C)[C@@]12CO2
- T/C (T/C endpoint: median survival time, dose: 0.75 mg/kg/injection, schedule: Q07DX003 (sc), vehicle: saline + alcohol, higher T/C = longer survival): 137 % of control [survivor count not shown]
- T/C [1]: 165 % of control [survivor count not shown]

Compound: CC1=C[C@H]2O[C@@H]3[C@H](O)[C@@H](O)[C@](C)(C2(COC(=O)CCl)CC1)[C@@]31CO1 (stereo partly drawn)
- T/C (T/C endpoint: median tumor weight (est.), dose: 1.5 mg/kg/injection, schedule: Q07DX003 (ip), vehicle: saline with Tween-80, evaluated on day 20, higher T/C = larger tumour): 140 % of control [survivor count not shown]
- T/C (T/C endpoint: median tumor weight (est.), dose: 3.0 mg/kg/injection, schedule: Q07DX003 (ip), vehicle: saline with Tween-80, evaluated on day 20, higher T/C = larger tumour): 120 % of control [survivor count not shown]

Compound: CC(=O)OCC12CC(O)C(C)=CC1OC1C(O)C(OC(C)=O)C2(C)C12CO2 (stereo not drawn)
- T/C (T/C endpoint: median tumor weight (est.), dose: 0.31 mg/kg/injection, schedule: Q07DX002 (ip), vehicle: saline, evaluated on day 20, higher T/C = larger tumour): 115 % of control [survivor count not shown]
- T/C (T/C endpoint: median tumor weight (est.), dose: 0.62 mg/kg/injection, schedule: Q07DX002 (ip), vehicle: saline, evaluated on day 20, higher T/C = larger tumour): 74 % of control [survivor count not shown]
- T/C (T/C endpoint: median tumor weight (est.), dose: 2.5 mg/kg/injection, schedule: Q07DX002 (ip), vehicle: saline, evaluated on day 20, higher T/C = larger tumour): 178 % of control [survivor count not shown]
- T/C [10]: 52 % of control [survivor count not shown]
- T/C [13]: 85 % of control [survivor count not shown]

Compound: CC1=C[C@H]2O[C@@H]3[C@H](O)[C@@H](O)[C@](C)([C@@]2(CO)CC1)[C@@]31CO1
- T/C (T/C endpoint: median tumor weight (est.), dose: 0.12 mg/kg/injection, schedule: Q07DX003 (ip), vehicle: saline, evaluated on day 20, higher T/C = larger tumour): 64 % of control [survivor count not shown]
- T/C [2]: 102 % of control [survivor count not shown]
- T/C [3]: 37 [survivor count not shown] and 60 % of control [survivor count not shown]
- T/C [4]: 63 [survivor count not shown] and 106 % of control [survivor count not shown]
- T/C [5]: 65 [survivor count not shown], 73 [survivor count not shown], 107 % of control [survivor count not shown]
- T/C (T/C endpoint: median tumor weight (est.), dose: 2.0 mg/kg/injection, schedule: Q07DX002 (ip), vehicle: saline, evaluated on day 20, higher T/C = larger tumour): 72 [survivor count not shown] and 105 % of control [survivor count not shown]
- T/C [7]: 12 [survivor count not shown], 62 [survivor count not shown], 88 % of control [survivor count not shown]
- T/C (T/C endpoint: median tumor weight (est.), dose: 4.0 mg/kg/injection, schedule: Q07DX002 (ip), vehicle: saline, evaluated on day 20, higher T/C = larger tumour): 97 % of control [survivor count not shown]
- T/C [9]: 46 [survivor count not shown], 54 [survivor count not shown], 95 % of control [survivor count not shown]
- T/C [11]: 52 % of control [survivor count not shown]
- T/C [12]: 47 [survivor count not shown], 57 [survivor count not shown], 81 % of control [survivor count not shown]
- T/C (T/C endpoint: median tumor weight (est.), dose: 16.0 mg/kg/injection, schedule: Q07DX002 (ip), vehicle: saline, evaluated on day 20, higher T/C = larger tumour): 36 % of control [survivor count not shown]
- T/C (T/C endpoint: median tumor weight (est.), dose: 16.0 mg/kg/injection, schedule: Q07DX003 (ip), vehicle: saline, evaluated on day 20, higher T/C = larger tumour): 17 % of control [survivor count not shown]

Compound: CC1=C[C@H]2O[C@@H]3[C@H](OC(=O)CCl)[C@@H](O)[C@](C)(C2(COC(=O)CCl)CC1)[C@@]31CO1 (stereo partly drawn)
- T/C [6]: 133 % of control [survivor count not shown]
- T/C [8]: 94 % of control [survivor count not shown]

— PubChem BioAssay AID212 (DTP/NCI, 2004)
